Source: article PMC6127144

Chains of the proteins cited; added tags and fusions are not shown. Lines headed by an entry give the natural chain unless they say otherwise; changes in a name come on top. A line that says so, or that is headed by a name, gives the form on record, which may keep a tag or linker.
human plasma membrane Ca2+-ATPase 1, full-length human PMCA1d (P20020, form named): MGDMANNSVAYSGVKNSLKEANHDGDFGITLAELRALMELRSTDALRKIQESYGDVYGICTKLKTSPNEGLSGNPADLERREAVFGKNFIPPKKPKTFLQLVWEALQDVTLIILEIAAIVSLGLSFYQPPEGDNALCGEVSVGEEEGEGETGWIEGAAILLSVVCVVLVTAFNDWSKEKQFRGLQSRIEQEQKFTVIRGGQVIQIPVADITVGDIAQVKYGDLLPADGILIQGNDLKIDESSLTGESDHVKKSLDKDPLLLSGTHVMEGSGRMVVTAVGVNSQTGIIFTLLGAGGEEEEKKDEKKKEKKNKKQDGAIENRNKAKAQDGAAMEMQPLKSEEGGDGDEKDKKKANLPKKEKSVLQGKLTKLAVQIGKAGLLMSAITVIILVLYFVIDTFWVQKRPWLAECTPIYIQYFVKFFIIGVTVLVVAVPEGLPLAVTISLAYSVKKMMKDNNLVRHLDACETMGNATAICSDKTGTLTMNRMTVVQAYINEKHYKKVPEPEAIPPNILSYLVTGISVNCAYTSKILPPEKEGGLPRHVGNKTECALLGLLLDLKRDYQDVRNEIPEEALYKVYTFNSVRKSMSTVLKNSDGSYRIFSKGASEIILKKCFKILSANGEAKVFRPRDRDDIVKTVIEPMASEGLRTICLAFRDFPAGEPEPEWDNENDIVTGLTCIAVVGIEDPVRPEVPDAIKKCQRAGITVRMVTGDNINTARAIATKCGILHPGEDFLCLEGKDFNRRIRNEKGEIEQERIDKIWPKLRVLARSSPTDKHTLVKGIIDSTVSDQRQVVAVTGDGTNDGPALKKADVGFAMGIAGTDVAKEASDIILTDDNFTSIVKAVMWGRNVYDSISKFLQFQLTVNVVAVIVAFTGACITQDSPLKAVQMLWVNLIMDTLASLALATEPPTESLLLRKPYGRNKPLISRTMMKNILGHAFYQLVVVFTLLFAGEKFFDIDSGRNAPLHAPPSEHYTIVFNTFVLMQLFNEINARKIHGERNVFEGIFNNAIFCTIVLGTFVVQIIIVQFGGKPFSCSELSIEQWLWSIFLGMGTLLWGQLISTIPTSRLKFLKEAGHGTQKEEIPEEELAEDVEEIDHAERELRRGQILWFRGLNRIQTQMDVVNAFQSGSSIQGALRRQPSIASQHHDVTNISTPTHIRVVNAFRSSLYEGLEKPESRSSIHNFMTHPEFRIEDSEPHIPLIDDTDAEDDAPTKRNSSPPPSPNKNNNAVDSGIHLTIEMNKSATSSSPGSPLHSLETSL

Biological target: human plasma membrane Ca2+-ATPase 1, full-length human PMCA1d (human) (UniProt P20020)
Assay: affinity purification with mass spectrometry; hPMCA1-FLAG-His8 purified from DDM/CHS-solubilised HEK293F membranes by anti-FLAG M2 gel, Ni-NTA and SEC (Superose 6, 0.1% digitonin); ~55 kDa smear bands that co-migrated with hPMCA1 analysed by MS

binding: binds
Substance: basigin (from UniProt P35613-2)

No constants are given. Whether binding was seen depends on the method and setting. Binding seen in cells or lysates may run through a third protein. These calls come from enrichment with a bait or labelling near it, and not all partners need be listed.
